According to the supplement of paper PMC3334620:
The full ranking holds about 33,000 sequences; the median of “E-score (-0.5 to 0.5)” is about -0.0014, and the highest 2% start at about 0.25. Some of the results follow.

target: T1, Cad1 (UniProt P24813); assay: PBM E-score (8-mer binding enrichment) (E-score (-0.5 to 0.5)); higher = stronger / more preferred TF binding; details: protein concentration: 100 nM; construct: GST-full length
T1 sequence: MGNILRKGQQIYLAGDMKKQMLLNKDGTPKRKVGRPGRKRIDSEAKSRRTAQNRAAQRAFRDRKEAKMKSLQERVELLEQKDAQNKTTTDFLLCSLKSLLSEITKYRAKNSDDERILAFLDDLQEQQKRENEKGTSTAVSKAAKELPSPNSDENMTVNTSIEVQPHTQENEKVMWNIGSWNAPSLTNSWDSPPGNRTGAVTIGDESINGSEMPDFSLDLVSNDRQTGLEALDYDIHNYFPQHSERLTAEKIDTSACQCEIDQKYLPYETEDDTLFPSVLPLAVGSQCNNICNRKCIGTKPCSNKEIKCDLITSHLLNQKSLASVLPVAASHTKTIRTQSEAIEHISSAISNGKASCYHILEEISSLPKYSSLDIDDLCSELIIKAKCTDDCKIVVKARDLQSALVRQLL
Outline: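 Each ungapped eight-base word and its reverse complement, pooled, received an E-score from the Universal PBM Analysis Suite. Underlying scans, normalised with masliner, recorded fluorescent anti-GST bound to GST-tagged yeast transcription factors. These were applied at about 100-200 nM to universal all-10-mer Agilent arrays double-stranded by primer extension.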

| Sequence | PBM E-score |
| --- | --- |
| CAATGTAC | -0.165 |
| ATAAGGTA | 0.0374 |
| TCCTTCGA | -0.054 |
| GATCGAAA | 0.128 |
| AAGAGTTC | -0.156 |
| GAAGATTC | 0.0467 |
| GAAAGTTC | -0.0406 |
| ACAACGCT | -0.0443 |
| AGTAGGTA | -0.0597 |
| CTTTCGCC | -0.0927 |
| GAACACTC | 0.0646 |
| CCGCCTAA | -0.0319 |
| GCTGCCGA | -0.0957 |
| GTACTCTA | -0.162 |
| CGGTAGAC | 0.00118 |
| AATTGCGA | 0.0416 |
| AACGTCCT | -0.0973 |
| AGACAAGA | 0.0567 |
| TAACACAA | 0.178 |
| AGCTTGGA | -0.205 |
| ACAGGTCC | -0.124 |
| AATATCAA | 0.138 |
| ACGCTGCA | -0.0162 |
| CCGAGAAC | 0.0446 |
| GCAAATCA | 0.101 |

| Sequence | PBM E-score |
| --- | --- |
| ATATCGTC | 0.0847 |
| AACCTCTT | 0.134 |
| AACGCTAC | -0.162 |
| AGGATCCA | -0.0192 |
| AAGCTCAT | -0.026 |
| CCTCACCC | -0.258 |
| GCTCTCAC | -0.199 |
| GCTACCGA | 0.0341 |
| CGCCTGCC | -0.109 |
| AAGTCCGC | 0.0704 |
| CTCCGCTA | -0.0531 |
| ACAGAACG | -0.172 |
| AGGTCCGG | 0.0244 |
| CCCCTGTC | -0.385 |
| CCGTTTTC | 0.0314 |
| ATAATATG | 0.165 |
| AGGCCTAA | 0.213 |
| AACTCCCA | -0.132 |
| ACACCTTG | -0.0562 |
| CACGAAAA | 0.161 |
| GATCCCTA | -0.178 |
| GTCGGTGA | -0.13 |
| ACCTTGTA | -0.0686 |
| AAGCTGCC | 0.0151 |
| AATCCTCA | -0.0804 |

| Sequence | PBM E-score |
| --- | --- |
| CAAAACTA | 0.143 |
| GACGCACC | 0.0198 |
| CGCTATCA | 0.114 |
| GGATCGAA | 0.045 |
| AAATAGCG | 0.155 |
| CAACCGTA | -0.195 |
| ACAAAACA | 0.0397 |
| CCGGACGC | -0.00894 |
| AGTGGTGA | 0.0973 |
| AGCCATAG | -0.123 |
| AGTTGCAG | -0.0261 |
| GTTAGTAA | 0.422 |
| AAGACTTG | -0.072 |
| ATGTAGTG | 0.0537 |
| CTCACAGA | 0.0605 |
| GTTATAAA | 0.184 |
| ACTTGATA | 0.148 |
| CTGCGCCC | -0.178 |
| CCTTTACC | -0.273 |
| CGATTGCG | 0.0341 |
| AAAGCGCA | -0.0636 |
| CTAAAATA | 0.0866 |
| TGGGCAAA | -0.136 |
| CGACTCCG | -0.15 |
| AAATAATC | 0.198 |

| Sequence | PBM E-score |
| --- | --- |
| ACGCGTTC | 0.213 |
| CCACGAAA | -0.0499 |
| CCCTCCCG | -0.226 |
| GAGCCATC | -0.148 |
| ACTCGGCC | 0.0273 |
| CATGCCAA | 0.0289 |
| ATGAAAGA | 0.0683 |
| AACTCCCG | 0.207 |
| TTACTCAA | 0.0484 |
| ATGCATAC | 0.0894 |
| CTTCCCCC | -0.435 |
| CAGTCGGA | -0.00739 |
| AGATCTAC | -0.0216 |
| ATAGATGC | -0.112 |
| GCGGGCGA | 0.0601 |
| AAGTTTTG | 0.114 |
| CGAAACGA | 0.0421 |
| GACCCGTA | -0.122 |
| CTGAGTGC | -0.18 |
| CTTGGTTA | 0.142 |
| CTACTAAA | 0.0417 |
| CCGGGCCA | -0.211 |
| ATAAATAC | 0.252 |
| GTAAAGCA | 0.0819 |
| AAGTAATG | 0.0383 |

| Sequence | PBM E-score |
| --- | --- |
| AAGCGATA | 0.103 |
| AATGCTAG | -0.133 |
| AGTTCGCC | -0.0488 |
| ATGTGGCA | -0.0532 |
| CGGACGGC | 0.0427 |
| CAACTCTA | -0.143 |
| CGGAGATC | -0.095 |
| CGCTACAA | 0.0119 |
| GTCAATAA | -0.0291 |
| TATGATGA | 0.129 |
| ACCTTATG | 0.042 |
| ACGCCGTC | 0.048 |
| AAGAACTG | -0.00034 |
| ACTAATGC | 0.275 |
| GGCGTCGA | 0.191 |
| ATACGCAC | 0.129 |
| ATCGTCCA | -0.101 |
| AGCCTGAT | 0.0339 |
| CTCAGACA | 0.171 |
| AATCATTG | 0.103 |
| TGTGGGAA | -0.0527 |
| CCGACCTC | -0.0414 |
| AAAATGGG | -0.157 |
| CACATTAC | 0.226 |
| AGCTCGGC | 0.0761 |

| Sequence | PBM E-score |
| --- | --- |
| AGCCACTA | -0.0815 |
| CGGTCATC | -0.0838 |
| GCTACATA | -0.00397 |
| CCACGACC | -0.0775 |
| AGCTACTC | -0.142 |
| GAGAAGGA | -0.0712 |
| CACTATAG | 0.0879 |
| ACGTGCGG | 0.0511 |
| CTCTTCTA | -0.275 |
| ATATCCTA | 0.0397 |
| GAATCTCA | -0.169 |
| CTCAGATC | 0.0284 |
| GAAGGTAA | 0.0658 |
| GGATTTAC | 0.176 |
| CCCCACGG | -0.201 |
| TACACCAA | 0.11 |
| CCACAGGA | -0.184 |
| AAGAGCCC | -0.152 |
| CCAAAACG | 0.0484 |
| ATGTCGGC | -0.145 |
| TACCAAGA | 0.107 |
| CCCCAGCA | -0.117 |
| GCAGTTGA | 0.177 |
| AACTGCCC | -0.131 |
| ACAGTTTC | 0.162 |

At a glance, part of the list above:

| Sequence | PBM E-score |
| --- | --- |
| CGGAGATC | -0.095 |
| CGCTACAA | 0.0119 |

The listing continues.

| Sequence | PBM E-score |
| --- | --- |
| TCGCAGAA | -0.192 |
| AGGCCACT | 0.0486 |
| AATAGTCT | -0.0386 |
| ATTCCCTA | 0.0554 |
| AAGCGCCA | -0.112 |
| CCTTTTCA | -0.0603 |
| CTGGCGTC | -0.223 |
| CACCCGAC | -0.0906 |
| ACTTCAAT | 0.0775 |
| ATTGTTGC | 0.122 |
| AGTCCAAA | -0.0797 |
| CAGGCTCA | -0.0756 |
| GGTGATCA | -0.00238 |
| GGTTATGA | -0.00032 |
| AAGCTCCC | -0.192 |
| CGTACACC | -0.149 |
| GCCCCGAC | -0.175 |
| ACGGAGTA | -0.0145 |
| AGACATTG | -0.0268 |
| TACTGAAA | 0.235 |
| GGCTAAGA | -0.169 |
| AACCAGTT | 0.27 |

Exported as tab-separated lines: part of the list above.
Sequence	PBM E-score
AGCTACTC	-0.142
GAGAAGGA	-0.0712
CACTATAG	0.0879
ACGTGCGG	0.0511
CTCTTCTA	-0.275
ATATCCTA	0.0397
GAATCTCA	-0.169
CTCAGATC	0.0284
GAAGGTAA	0.0658
GGATTTAC	0.176
CCCCACGG	-0.201
TACACCAA	0.11
CCACAGGA	-0.184
AAGAGCCC	-0.152
CCAAAACG	0.0484
ATGTCGGC	-0.145
TACCAAGA	0.107
CCCCAGCA	-0.117
GCAGTTGA	0.177
AACTGCCC	-0.131
ACAGTTTC	0.162
TCGCAGAA	-0.192
AGGCCACT	0.0486
AATAGTCT	-0.0386
ATTCCCTA	0.0554
AAGCGCCA	-0.112
CCTTTTCA	-0.0603
CTGGCGTC	-0.223
CACCCGAC	-0.0906
ACTTCAAT	0.0775
ATTGTTGC	0.122
AGTCCAAA	-0.0797
CAGGCTCA	-0.0756
GGTGATCA	-0.00238
GGTTATGA	-0.00032
AAGCTCCC	-0.192
CGTACACC	-0.149
GCCCCGAC	-0.175
ACGGAGTA	-0.0145
AGACATTG	-0.0268
TACTGAAA	0.235
GGCTAAGA	-0.169
AACCAGTT	0.27
